Measurements reported in PubChem BioAssay AID1259424 (University of Nebraska Medical Center, 2018)

Aim: 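Rank knockdowns across the genome by resemblance to the KSR1 depletion profile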 (primary screen)
Cells: human HCT116 colon cancer cells
Reagents: siRNA pool against human genes, 50 nM
Measurement: 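Six signature mRNAs by branched-DNA multiplex assay, scaled to two housekeeping genes and non-targeting median, log2; matched to mean KSR1 knockdown profile by Pearson correlation and euclidean distance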
Scale: mean correlation with KSR1 profile: higher = expression change more like KSR1 knockdown; mean distance from KSR1 profile: higher = expression change less like KSR1 knockdown
Here is one part, drawn at random, of about 14,000 reagents. 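Higher correlation or smaller distance means closer resemblance to KSR1 loss; control wells, including KSR1 knockdowns, recur on many plates.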 Further read-outs or replicates are left out here. The record does not give: the time to read-out.

After knock-down of FOXA2 (forkhead box A2) the results were mean correlation with KSR1 profile 0.435; mean distance from KSR1 profile 2.66.
Against SLIRP (SRA stem-loop interacting RNA binding protein) the deposit lists mean correlation with KSR1 profile 0.383; mean distance from KSR1 profile 1.84.
After knock-down of SERPINF1 (serpin family F member 1), the screen gave mean correlation with KSR1 profile 0.378; mean distance from KSR1 profile 3.91.
After knock-down of GPANK1 (G-patch domain and ankyrin repeats 1), the screen gave mean correlation with KSR1 profile 0.123; mean distance from KSR1 profile 1.64.
Silencing of ADAT1 (adenosine deaminase tRNA specific 1) resulted in: mean correlation with KSR1 profile 0.655; mean distance from KSR1 profile 1.81.
NIPAL2 (NIPA like domain containing 2) gave mean correlation with KSR1 profile 0.26; mean distance from KSR1 profile 2.32.
POLR1H (RNA polymerase I subunit H) showed mean correlation with KSR1 profile -0.156; mean distance from KSR1 profile 3.43.
OAT (ornithine aminotransferase) showed mean correlation with KSR1 profile -0.231; mean distance from KSR1 profile 2.73.
Depletion of OPRD1 (opioid receptor delta 1) came out at: mean correlation with KSR1 profile 0.342; mean distance from KSR1 profile 2.77.
For FAHD1 (FAH domain containing oxaloacetate decarboxylase 1), the values are mean correlation with KSR1 profile 0.286; mean distance from KSR1 profile 3.25.
After knock-down of COQ10B (coenzyme Q10B), the record shows mean correlation with KSR1 profile 0.115; mean distance from KSR1 profile 1.93.
Silencing of PTPRR (protein tyrosine phosphatase receptor type R) gave: mean correlation with KSR1 profile -0.0708; mean distance from KSR1 profile 5.15.
With knock-down of SEZ6L (seizure related 6 homolog like), the record shows mean correlation with KSR1 profile 0.453; mean distance from KSR1 profile 1.89.
MYH3 (myosin heavy chain 3) scored mean correlation with KSR1 profile -0.0649; mean distance from KSR1 profile 1.45.
Knock-down of PCDH15 (protocadherin related 15) came out at: mean correlation with KSR1 profile 0.51; mean distance from KSR1 profile 1.95.
After knock-down of TSLIG3A (tRNA splicing ligase complex subunit 3A), the screen gave mean correlation with KSR1 profile -0.722; mean distance from KSR1 profile 2.94.
After knock-down of RSRP1 (arginine and serine rich protein 1), the screen gave mean correlation with KSR1 profile -0.0847; mean distance from KSR1 profile 3.52.
ARHGDIA (Rho GDP dissociation inhibitor alpha) scored mean correlation with KSR1 profile 0.248; mean distance from KSR1 profile 1.63.
MED8 (mediator complex subunit 8) gave mean correlation with KSR1 profile -0.287; mean distance from KSR1 profile 4.6.
After knock-down of AHSA2P (activator of HSP90 ATPase homolog 2, pseudogene), the record shows mean correlation with KSR1 profile -0.221; mean distance from KSR1 profile 1.71.
Knock-down of PGAP1 (post-GPI attachment to proteins inositol deacylase 1) came out at: mean correlation with KSR1 profile -0.0854; mean distance from KSR1 profile 1.72.
ZNF32 (zinc finger protein 32) gave mean correlation with KSR1 profile 0.391; mean distance from KSR1 profile 3.12.
Depletion of CYTH4 (cytohesin 4) resulted in: mean correlation with KSR1 profile 0.102; mean distance from KSR1 profile 4.56.
SLC35A5 scored mean correlation with KSR1 profile -0.0966; mean distance from KSR1 profile 3.91.
Knock-down of GPS2 (G protein pathway suppressor 2) gave: mean correlation with KSR1 profile 0.526; mean distance from KSR1 profile 0.858.
Against RNF170 (ring finger protein 170), the entry reads mean correlation with KSR1 profile -0.17; mean distance from KSR1 profile 2.21.
Against MRM1 (mitochondrial rRNA methyltransferase 1) the deposit lists mean correlation with KSR1 profile 0.622; mean distance from KSR1 profile 2.27.
After knock-down of RBFOX2 (RNA binding fox-1 homolog 2), the screen gave mean correlation with KSR1 profile -0.389; mean distance from KSR1 profile 3.31.
PMM1 (phosphomannomutase 1) scored mean correlation with KSR1 profile -0.0567; mean distance from KSR1 profile 4.22.
With knock-down of TRIM39 (tripartite motif containing 39) the results were mean correlation with KSR1 profile -0.0371; mean distance from KSR1 profile 2.03.
POU3F1 (POU class 3 homeobox 1) scored mean correlation with KSR1 profile -0.452; mean distance from KSR1 profile 1.97.
Against ANKRD1 (ankyrin repeat domain 1), the entry reads mean correlation with KSR1 profile -0.418; mean distance from KSR1 profile 3.06.
DEPDC1B (DEP domain containing 1B) gave mean correlation with KSR1 profile -0.307; mean distance from KSR1 profile 1.82.
Silencing of ZHX1 (zinc fingers and homeoboxes 1) came out at: mean correlation with KSR1 profile -0.361; mean distance from KSR1 profile 3.74.
After knock-down of PATZ1 (POZ/BTB and AT hook containing zinc finger 1) the results were mean correlation with KSR1 profile -0.222; mean distance from KSR1 profile 3.02.
With knock-down of SLC25A36 the results were mean correlation with KSR1 profile -0.618; mean distance from KSR1 profile 2.65.

Reprinted from the listing (6 entries):
PCDH15 (protocadherin related 15) | mean correlation with KSR1 profile: 0.51; mean distance from KSR1 profile: 1.95
TSLIG3A (tRNA splicing ligase complex subunit 3A) | mean correlation with KSR1 profile: -0.722; mean distance from KSR1 profile: 2.94
RSRP1 (arginine and serine rich protein 1) | mean correlation with KSR1 profile: -0.0847; mean distance from KSR1 profile: 3.52
ARHGDIA (Rho GDP dissociation inhibitor alpha) | mean correlation with KSR1 profile: 0.248; mean distance from KSR1 profile: 1.63
MED8 (mediator complex subunit 8) | mean correlation with KSR1 profile: -0.287; mean distance from KSR1 profile: 4.6
AHSA2P (activator of HSP90 ATPase homolog 2, pseudogene) | mean correlation with KSR1 profile: -0.221; mean distance from KSR1 profile: 1.71
